Laboratory results: PubChem BioAssay AID686943 (Drosophila RNAi Screening Center, 2013)

- Test: 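Knockdowns that increase or decrease active ERK after insulin receptor stimulation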 (primary screen)
- Cell system: Drosophila S2R+ haemocyte-like cells expressing YFP-tagged ERK (Rolled)
- Reagent: long dsRNA against Drosophila genes
- Treatment: insulin stimulation versus unstimulated cells; dose and duration not given
- Measured: 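Per-plate z-scores of phospho-ERK immunostaining normalised to YFP-tagged ERK, measured with and without insulin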
- Reading the numbers: replicate 1, z-score of dpERK with insulin and replicate 2, z-score of dpERK with insulin: higher = more active ERK per ERK-YFP after insulin; replicate 1, z-score of dpERK under basal conditions: higher = more basal active ERK per ERK-YFP; replicate 1, z-score of ERK-YFP with insulin: higher = more YFP-tagged ERK signal
The deposit covers about 23,000 reagents; this is an unselected part of those with a known target gene and a result. 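Extra replicates exist only for a retested subset of genes; insulin dose and duration not given; both raised and lowered dpERK matter.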 Names joined by + are all predicted targets of the reagent. No sequences are given here. The record does not give: the amount of reagent, the time to read-out.

no.	gene knocked down	DRSC id	replicate 1, z-score of dpERK with insulin	replicate 2, z-score of dpERK with insulin	replicate 1, z-score of dpERK under basal conditions	replicate 1, z-score of ERK-YFP with insulin
1	nonC (no-on-and-no-off transient C)	DRSC18366	-1.16	-1.06	-0.25	1.56
2	nonC (no-on-and-no-off transient C)	DRSC18367	-0.78	-1.39	-0.36	2.29
3	CG42582 (retired record)	DRSC20675	-0.88	-0.48	-0.69	-0.47
4	CG13377	DRSC18622	1.23	0.24	-0.17	-0.19
5	FucTC (alpha1,3-fucosyltransferase C)	DRSC20966	-0.4	-0.83	0.38	0.26
6	CG13871	DRSC06430	-0.75	-1.14	0.24	-0.39
7	Or69a (Odorant receptor 69a)	DRSC11243	0.81	0.59	-0.21	0.28
8	cm + Inx7	DRSC18753	0.16	0.04	1.31	-0.02
9	CG33308	DRSC01419	-1.97	-1.59	1.02	0.36
10	CG13295	DRSC09969	0.5	0.23	1.17	0.19
11	Ets65A (Ets at 65A)	DRSC09968	0.16	0.65	0.93	0.05
12	Ets65A (Ets at 65A)	DRSC10738	-0.25	-0.89	-0.66	0.07
13	Ets65A (Ets at 65A)	DRSC11164	-0.64	1.13	0.2	1.01
14	Ddx56 (DEAD-box helicase 56)	DRSC20567	-0.77	-0.88	-1.9	-0.01
15	bif (bifocal)	DRSC18901	0.39	0.87	0.72	-0.22
16	bif (bifocal)	DRSC20313	-0.13	0.04	-0.89	-0.63
17	CR17567 (retired record)	DRSC02627	-0.14	0.28	-0.22	0.19
18	CR17567 (retired record)	DRSC22537	0.21	0.29	0.07	-0.58
19	Chd64	DRSC08649	-0.09	-0.1	-1.09	-0.65
20	CG4452	DRSC10422	0.36	0.24	0.62	0.25
21	CG32554	DRSC22713	0.32	1.02	0.41	-0.28
22	Pyroxd1 (Pyridine nucleotide-disulfide oxidoreductase domain 1)	DRSC02098	-0.26	-0.02	0.05	-0.74
23	kipf (kipferl)	DRSC15446	0.57	-0.6	-0.02	-0.01
24	kipf (kipferl)	DRSC22871	1.01	0.16	-0.14	-0.89
25	CG15696	DRSC15118	0.06	0.29	-1.17	-0.08
26	PolrMT (RNA polymerase mitochondrial)	DRSC00660	0.04	0.58	-0.4	0.28
27	CG34370	DRSC03913	0.27	0.26	-0.42	-0.21
28	CG34370	DRSC04142	0.82	-0.46	0.19	-0.05
29	CG34370	DRSC04143	-0.58	-0.74	-0.65	0.74
30	CG34370	DRSC04144	-1.14	0.01	-0.14	1.72
31	nAChRbeta1 (nicotinic Acetylcholine Receptor beta1)	DRSC08097	0.11	0.07	1.03	0.19
32	nAChRbeta1 (nicotinic Acetylcholine Receptor beta1)	DRSC08728	-0.17	2.13	-1.42	0.19
33	Rtf1	DRSC04085	2.27	2.23	-1.36	-2.99
34	MtnF (Metallothionein F)	DRSC13683	0.21	0.49	0.16	0.52
35	Desi (Desiccate)	DRSC14909	0.2	-0.09	0.15	-0.17
36	Dip-B (Dipeptidase B)	DRSC16466	-0.54	-0.57	-0.45	0.69
37	CG15803	DRSC15121	1.17	-0.05	-0.75	0.4
38	CG32686	DRSC17645	0.6	0.69	0.91	0.15
39	CG5455	DRSC15805	-0.33	0.42	-0.98	-3.91
40	Gr89a (Gustatory receptor 89a)	DRSC15023	-1.01	0.28	0.86	0.09
41	bwa (brain washing)	DRSC01749	-1.04	-0.81	-1.63	-0.09
42	bwa (brain washing)	DRSC02310	0.5	0.47	-1.2	-0.19
43	mRpS9 (mitochondrial ribosomal protein S9)	DRSC12645	-0.24	-0.79	-1.46	0.35
44	mRpS9 (mitochondrial ribosomal protein S9)	DRSC15456	-0.64	-1.1	0.36	0.82
45	l(2)37Cb (lethal (2) 37Cb)	DRSC02095	0.53	0.16	0.51	0.25
46	Cbl (Cbl proto-oncogene)	DRSC10764	-0.18	-0.02	-0.85	0.1
47	Cbl (Cbl proto-oncogene)	DRSC11111	-0.24	0.41	-0.84	0.47
48	CG4576	DRSC15604	-0.37	0.24	0.35	-0.06
49	CG7227	DRSC03032	0.7	0.51	-0.14	0.36
50	CG15308	DRSC17995	0.15	0.4	0.54	0.08
51	CG33120	DRSC02073	-0.24	0.27	-0.65	0.45
52	RpS16 (Ribosomal protein S16)	DRSC04442	-1.48	-1.08	-2.09	-1.31
53	org-1 (optomotor-blind-related-gene-1)	DRSC18810	-1.37	-1.29	-1.89	-0.79
54	eff (effete)	DRSC16940	-0.89	0.63	0.62	0.11
55	Mettl14 (Methyltransferase like 14)	DRSC03073	0.21	-0.67	-0.11	0.06
56	CG16825	DRSC02526	-0.61	-0.56	2.47	0.43
57	Snx3 (Sorting nexin 3)	DRSC16027	0.25	-0.14	-0.36	-0.08

Laid out differently: results already given
bwa (brain washing) [DRSC02310]
- replicate 1, z-score of dpERK with insulin: 0.5
- replicate 2, z-score of dpERK with insulin: 0.47
- replicate 1, z-score of dpERK under basal conditions: -1.2
- replicate 1, z-score of ERK-YFP with insulin: -0.19

mRpS9 (mitochondrial ribosomal protein S9) [DRSC12645]
- replicate 1, z-score of dpERK with insulin: -0.24
- replicate 2, z-score of dpERK with insulin: -0.79
- replicate 1, z-score of dpERK under basal conditions: -1.46
- replicate 1, z-score of ERK-YFP with insulin: 0.35

mRpS9 (mitochondrial ribosomal protein S9) [DRSC15456]
- replicate 1, z-score of dpERK with insulin: -0.64
- replicate 2, z-score of dpERK with insulin: -1.1
- replicate 1, z-score of dpERK under basal conditions: 0.36
- replicate 1, z-score of ERK-YFP with insulin: 0.82

l(2)37Cb (lethal (2) 37Cb) [DRSC02095]
- replicate 1, z-score of dpERK with insulin: 0.53
- replicate 2, z-score of dpERK with insulin: 0.16
- replicate 1, z-score of dpERK under basal conditions: 0.51
- replicate 1, z-score of ERK-YFP with insulin: 0.25

Cbl (Cbl proto-oncogene) [DRSC10764]
- replicate 1, z-score of dpERK with insulin: -0.18
- replicate 2, z-score of dpERK with insulin: -0.02
- replicate 1, z-score of dpERK under basal conditions: -0.85
- replicate 1, z-score of ERK-YFP with insulin: 0.1

Cbl (Cbl proto-oncogene) [DRSC11111]
- replicate 1, z-score of dpERK with insulin: -0.24
- replicate 2, z-score of dpERK with insulin: 0.41
- replicate 1, z-score of dpERK under basal conditions: -0.84
- replicate 1, z-score of ERK-YFP with insulin: 0.47

CG4576 [DRSC15604]
- replicate 1, z-score of dpERK with insulin: -0.37
- replicate 2, z-score of dpERK with insulin: 0.24
- replicate 1, z-score of dpERK under basal conditions: 0.35
- replicate 1, z-score of ERK-YFP with insulin: -0.06

CG7227 [DRSC03032]
- replicate 1, z-score of dpERK with insulin: 0.7
- replicate 2, z-score of dpERK with insulin: 0.51
- replicate 1, z-score of dpERK under basal conditions: -0.14
- replicate 1, z-score of ERK-YFP with insulin: 0.36

CG15308 [DRSC17995]
- replicate 1, z-score of dpERK with insulin: 0.15
- replicate 2, z-score of dpERK with insulin: 0.4
- replicate 1, z-score of dpERK under basal conditions: 0.54
- replicate 1, z-score of ERK-YFP with insulin: 0.08
